In article PMC12489035 one finds binding data, which are given here for one molecule.

Amino acid sequences for entries named in this document (tags omitted). Residues count along the entry.
UniProt P05067, residues 724-770: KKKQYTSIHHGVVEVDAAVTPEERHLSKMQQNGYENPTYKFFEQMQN

No constants are given. Whether binding was seen depends on the method and setting. In cells and extracts the contact can be indirect. A yes stands for co-enrichment or nearness to the bait. Other partners may have been found.

The target of this experiment is GST fused to the WT cytosolic tail of APP (649-695) (UniProt P05067). Briefly: affinity purification with mass spectrometry; GST-APP tail (or GST only) on glutathione-Sepharose beads, incubated overnight at 4 °C with pre-cleared HEK293T lysate in 50 mM Tris pH 7.4, 150 mM NaCl, 1 mM EDTA, 5 mM 2-mercaptoethanol, 1% triton-X100; eluted with […] NaCl; LC-MS/MS; three independent experiments; only the target purified.

B1: cold-inducible RNA-binding protein (CIRBP) (protein, UniProt Q14011 1-172)
chain: MASDEGKLFVGGLSFDTNEQSLEQVFSKYGQISEVVVVKDRETQRSRGFGFVTFENIDDAKDAMMAMNGKSVDGRQIRVDQAGKSSDNRSRGYRGGSAGGRGFFRGGRGRGRGFSRGGGDRGYGGNRFESRSGGYGGSRDYYSSRSQSGGYSDRSSGGSYRDSYDSYATHNE
Regarding B1, the binding result is “binds”.
